In patent US11951087B2, “Eye wash compositions and methods” (priority 2021, dated 2024):
At least one compound was matched to its structure with a doubt left.

System: skin stripped wounds infected with Pseudomonas aeruginosa (ATCC 27853)
Assay: Histological assessment of tape-stripped, infected mouse skin wound (Example 6)
Conditions: 48 hours, relative to time zero (0+)

OC[C@H]1O[C@@H](Oc2cc3c(O)cc(O)cc3[o+]c2-c2ccc(O)c(O)c2)[C@H](O)[C@@H](O)[C@@H]1O [C3G, Cyanidin 3-glucoside]
skin thickness grade (100 mM): 2+ | skin thickness grade (200 mM): 2+
